Experimental data published in the supplement of paper PMC12889115.
This is one part of the list. These are raw signals, not scaled to a control.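 In the initial screen, polymyxin B was used at a concentration that permeabilizes Salmonella's outer membrane but not its inner membrane. Maximum growth was set by DMSO wells with or without polymyxin B. Since plates varied, data were ranked per plate, and compounds giving the lowest OD600 advanced as hits.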

Test system: Salmonella enterica serovar Typhimurium SL1344
Test: bacterial growth OD600 after 18 h with compound and polymyxin B; higher = more bacterial growth (less inhibition)
Conditions: 50 µM, Mueller-Hinton broth

Structure (SMILES)	bacterial growth OD600 (polymyxin B 0.75 µg/mL)	bacterial growth OD600 (polymyxin B 1 µg/mL)
COc1ccc(OC)c(CN2CCOc3ccc(C(C)(O)COc4ccccc4)cc3C2)c1 (stereo not given)	0.51	
COc1ccccc1C1(CC(=O)N2CCCC2c2ccc(F)cc2)CC(=O)N(C2CCCC2)C1=O (stereo not given)	-0.003	
CC(CNCc1cc(NS(C)(=O)=O)cc(C(=O)N2CCCCC2)c1)Cc1ccc2c(c1)OCO2 (stereo not given)	0.805	
Cc1ncoc1C(=O)N1CCCC(CCc2cccc(F)c2)C1 (stereo not given)	0.366	
Cc1nc2cc(NC(=O)C3CC34CCN(C(=O)c3ccc(-n5ccnc5)cc3)CC4)ccc2s1 (stereo not given)	0.826	
Cc1cc(C)n(-c2cccc(CN(C)C(=O)C3CCC(=O)N(Cc4ccccn4)C3)c2)n1 (stereo not given)		1.31
C#CCN(CC=C)Cc1c[nH]nc1-c1ccc2cc(OC)ccc2c1		0.04
O=C(NCCc1cscn1)c1cc(COc2ccccc2)[nH]n1		1.17
CC(C)c1c(C(=O)N2CCN(Cc3ccccc3)CC2)cnn1-c1nccc(-c2cccs2)n1	0.857	
CCN1CCCC1CNC(=O)CCC1CCN(Cc2c(OC)ccc3ccccc23)CC1 (stereo not given)		1.1
O=C(NCCN1Cc2ccccc2OC(c2ccccc2)C1)C1=CCCC1 (stereo not given)	0.603	
CC1(C)C[C@@H]2C[C@@](C)(CN2C(=O)c2cc(COc3ccc(-n4cncn4)cc3)on2)C1		0.009
COC(=O)c1ccc(CNc2nncc(-c3c(OC)cccc3OC)n2)cc1		0.785
CCN(C)c1ccc(C(=O)N2CCCCC2CCn2cccn2)cn1 (stereo not given)		0.531
c1ccc(-c2nc3c(c(N4CCN(Cc5cccc6c5OCO6)CC4)n2)CCC3)cc1	0.177	
COCCNC(=O)C1CCN(c2nc(C)c3ccccc3n2)CC1	0.939	
CCc1ncc(CN2CCOC(CCCc3ccccc3)C2)cn1 (stereo not given)	0.95	
COc1ccc(C(CC(=O)NCc2cccc(C)n2)c2ccccc2)cc1 (stereo not given)		0.774
Cc1ccccc1-c1cnc(-c2ccncc2)nc1C1CCCN(C(=O)C(C)N2CCOCC2)C1 (stereo not given)	0.779	
Cc1c(-c2ccccc2F)[nH]c2ccc(CNC(=O)CC3CCC(=O)N3)cc12 (stereo not given)		0.908

A second format for 2 compounds above.
CCN1CCCC1CNC(=O)CCC1CCN(Cc2c(OC)ccc3ccccc23)CC1 (stereo not given)
  bacterial growth OD600 (polymyxin B 1 µg/mL): 1.1
O=C(NCCN1Cc2ccccc2OC(c2ccccc2)C1)C1=CCCC1 (stereo not given)
  bacterial growth OD600 (polymyxin B 0.75 µg/mL): 0.603
